{
  "sequences": {"note": "The chains behind the UniProt entries cited, without tags or fusion partners. Where a name states a change or a piece, a line headed by the entry shows the natural chain unless it says otherwise.", "UniProt P26842": "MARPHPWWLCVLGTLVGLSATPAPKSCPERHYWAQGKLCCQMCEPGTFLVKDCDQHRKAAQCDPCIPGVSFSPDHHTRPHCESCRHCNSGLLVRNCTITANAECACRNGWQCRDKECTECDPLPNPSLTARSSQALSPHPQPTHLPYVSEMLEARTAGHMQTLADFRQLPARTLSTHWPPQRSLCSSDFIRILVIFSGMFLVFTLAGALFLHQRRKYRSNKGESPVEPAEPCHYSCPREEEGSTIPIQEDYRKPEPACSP"},
  "source": "patent US20170258835A1",
  "binders": {"B1": {"name": "M709.CD19 bi-specific antibody (bispecific antibody)", "chain": "DIVMTQSPDSLAVSLGERATINCKASQSVDYAGESFMNWYQQKPGQPPKLLIYAASNLESGVPDRFSGSGSGTDFTLTISSLQAEDVAVYYCQQSNEDPYTFGQGTKLEIKGGGGSGGGGSGGGGSEVQLVQSGAEVKKPGESLKISCKGSGYAFSSSWMNWVRQMPGKGLEWMGRIYAGDADTAYSPSFQGQVTISADKSISTAYLQWSSLKASDTAMYYCARSDYYGDYGFAYWGQGTLVTVSSGGGGSDIQMTQTTSSLSASLGDRVTISCRASQDISKYLNWYQQKPDGTVKLLIYHTSRLHSGVPSRFSGSGSGTDYSLTISNLEQEDIATYFCQQGNTLPYTFGGGTKLEITGGGGSGGGGSGGGGSEVKLQESGPGLVAPSQSLSVTCTVSGVSLPDYGVSWIRQPPRKGLEWLGVIWGSETTYYNSALKSRLTIIKDNSKSQVFLKMNSLQTDDTAIYYCAKHYYYGGSYAMDYWGQGTSVTVSS"}, "B2": {"name": "M708.CD19 bi-specific antibody (bispecific antibody)", "chain": "DIQMTQSPSSLSASVGDRVTITCRASKSVSTSGYSFMHWYQQKPGKAPKLLIYVGSRLDYGVPSRFSGSGSGTDFTLTISSLQPEDFATYYCQHSRELPWTFGQGTKVEIKGGGGSGGGGSGGGGSEVQLLESGGGLVQPGGSLRLSCAASGFTFSSYTMSWVRQAPGKGLEWVSVIDHGGGSTHYPDSVKGRFTISRDNSKNTLYLQMNSLRAEDTAVYYCARHRGNPFDYWGQGTLVTVSSGGGGSDIQMTQTTSSLSASLGDRVTISCRASQDISKYLNWYQQKPDGTVKLLIYHTSRLHSGVPSRFSGSGSGTDYSLTISNLEQEDIATYFCQQGNTLPYTFGGGTKLEITGGGGSGGGGSGGGGSEVKLQESGPGLVAPSQSLSVTCTVSGVSLPDYGVSWIRQPPRKGLEWLGVIWGSETTYYNSALKSRLTIIKDNSKSQVFLKMNSLQTDDTAIYYCAKHYYYGGSYAMDYWGQGTSVTVSS"}},
  "key": {"[1]": {"biological_target": "CD27-Z CLEAR (UniProt P26842)", "assay": "flow cytometry, anti-mouse IgG Fab against anti-CD27 on co-electroporated T cells"}, "[2]": {"biological_target": "CD27-Z CLEAR (UniProt P26842)", "assay": "flow cytometry, surface staining for CD27 and mIgG Fab on co-electroporated T cells"}},
  "note": "These are yes or no findings as the source states them, for the method shown. Some entries that bind do so weakly or less than the wild type.",
  "data": [
    {"binder": "B1", "values": [
      {"measurement": "binding", "setting": "[1]", "value": "binds"},
      {"measurement": "binding", "setting": "[2]", "value": "binds"}
    ]},
    {"binder": "B2", "values": [
      {"measurement": "binding", "setting": "[2]", "value": "binds"}
    ]}
  ]
}
